Laboratory results reported in patent US7618975B2, “4-arylamino-quinazolines and analogs as activators of caspases and inducers of apoptosis and the use thereof” (Myriad Pharmaceuticals, Inc., priority 2003, dated 2009).
For at least one compound, name, drawing or mass did not settle the structure.

Chains of the proteins cited; added tags and fusions are not shown. Lines headed by an entry give the natural chain unless they say otherwise; changes in a name come on top.
UniProt P11388: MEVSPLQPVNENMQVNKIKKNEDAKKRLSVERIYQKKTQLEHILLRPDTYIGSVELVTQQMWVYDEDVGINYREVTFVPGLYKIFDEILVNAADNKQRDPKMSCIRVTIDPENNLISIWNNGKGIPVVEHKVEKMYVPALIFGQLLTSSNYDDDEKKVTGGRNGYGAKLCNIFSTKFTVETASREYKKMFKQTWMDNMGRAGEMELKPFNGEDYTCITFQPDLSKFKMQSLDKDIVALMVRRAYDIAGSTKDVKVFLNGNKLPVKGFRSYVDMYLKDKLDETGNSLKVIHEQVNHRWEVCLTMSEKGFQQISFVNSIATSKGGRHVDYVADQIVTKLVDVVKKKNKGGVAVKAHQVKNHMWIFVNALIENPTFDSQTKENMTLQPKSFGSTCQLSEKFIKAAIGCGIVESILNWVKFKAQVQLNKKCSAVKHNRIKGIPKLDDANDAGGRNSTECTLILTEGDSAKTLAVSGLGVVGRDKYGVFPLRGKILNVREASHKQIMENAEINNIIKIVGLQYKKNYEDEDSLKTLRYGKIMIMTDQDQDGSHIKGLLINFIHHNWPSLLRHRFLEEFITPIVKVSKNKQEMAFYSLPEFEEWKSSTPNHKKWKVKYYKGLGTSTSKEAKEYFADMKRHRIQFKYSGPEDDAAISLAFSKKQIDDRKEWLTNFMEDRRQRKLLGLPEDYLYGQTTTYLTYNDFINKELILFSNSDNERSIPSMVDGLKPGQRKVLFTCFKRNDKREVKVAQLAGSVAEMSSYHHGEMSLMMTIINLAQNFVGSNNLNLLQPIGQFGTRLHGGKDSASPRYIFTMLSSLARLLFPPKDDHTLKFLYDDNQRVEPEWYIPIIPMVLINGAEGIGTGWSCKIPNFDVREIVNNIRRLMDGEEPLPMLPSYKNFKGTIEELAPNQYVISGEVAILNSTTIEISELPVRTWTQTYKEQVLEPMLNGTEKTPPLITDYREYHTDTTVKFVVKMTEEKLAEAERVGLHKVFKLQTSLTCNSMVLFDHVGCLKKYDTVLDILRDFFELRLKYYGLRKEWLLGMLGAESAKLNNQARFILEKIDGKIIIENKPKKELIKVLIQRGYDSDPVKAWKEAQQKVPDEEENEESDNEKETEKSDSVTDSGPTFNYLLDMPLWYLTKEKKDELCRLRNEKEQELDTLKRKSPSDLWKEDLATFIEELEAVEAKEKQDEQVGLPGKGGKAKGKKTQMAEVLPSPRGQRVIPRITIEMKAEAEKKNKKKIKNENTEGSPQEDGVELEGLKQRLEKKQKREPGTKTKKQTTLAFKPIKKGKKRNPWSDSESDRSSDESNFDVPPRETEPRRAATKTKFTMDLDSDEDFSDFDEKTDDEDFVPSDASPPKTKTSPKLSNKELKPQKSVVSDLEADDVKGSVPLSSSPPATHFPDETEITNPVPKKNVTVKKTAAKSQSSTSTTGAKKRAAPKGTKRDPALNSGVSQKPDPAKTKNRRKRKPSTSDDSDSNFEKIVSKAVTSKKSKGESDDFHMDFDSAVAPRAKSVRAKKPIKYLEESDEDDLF

Experiments:
[1] = target: T1, Topoisomerase I (Homo sapiens, UniProt P11387); test: Topoisomerase I activity assay (relaxation of supercoiled DNA, gel); details: FIG. 2
T1 sequence (P11387 1-765): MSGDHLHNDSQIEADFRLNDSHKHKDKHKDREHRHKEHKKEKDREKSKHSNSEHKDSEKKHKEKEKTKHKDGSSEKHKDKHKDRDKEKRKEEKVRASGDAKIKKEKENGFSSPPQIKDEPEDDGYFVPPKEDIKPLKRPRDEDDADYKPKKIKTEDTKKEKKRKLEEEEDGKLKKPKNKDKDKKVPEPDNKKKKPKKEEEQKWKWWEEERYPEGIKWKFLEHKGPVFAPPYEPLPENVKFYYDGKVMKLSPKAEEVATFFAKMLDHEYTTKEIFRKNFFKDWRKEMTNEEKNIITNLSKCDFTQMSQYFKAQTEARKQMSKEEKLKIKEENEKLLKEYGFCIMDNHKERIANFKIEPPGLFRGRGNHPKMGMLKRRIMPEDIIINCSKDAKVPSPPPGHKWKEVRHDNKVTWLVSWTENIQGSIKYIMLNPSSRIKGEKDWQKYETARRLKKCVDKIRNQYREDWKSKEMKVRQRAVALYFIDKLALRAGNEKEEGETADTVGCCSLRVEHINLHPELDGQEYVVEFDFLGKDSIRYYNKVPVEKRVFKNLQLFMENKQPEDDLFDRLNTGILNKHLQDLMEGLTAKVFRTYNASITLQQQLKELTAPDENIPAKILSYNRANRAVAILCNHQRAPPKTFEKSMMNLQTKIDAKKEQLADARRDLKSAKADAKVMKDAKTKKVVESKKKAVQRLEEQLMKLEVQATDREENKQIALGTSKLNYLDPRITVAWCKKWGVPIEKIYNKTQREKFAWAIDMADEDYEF

[2] = target: Topoisomerase II (Homo sapiens, UniProt P11388); test: Topoisomerase II activity assay (relaxation of supercoiled DNA, gel); details: FIG. 1, Example 1 Compound at 100 μM

`CC[n+]1c(-c2ccccc2)c2cc(N)ccc2c2ccc(N)cc21` [Ethidium Bromide, reference compound] was tested, and the “Effect on topoisomerase I-dependent relaxation of supercoiled DNA” value [1] was “completely eliminated” and the “Inhibition of topoisomerase II-dependent relaxation of supercoiled DNA” value [2] was “eliminated”.
